# Measurements reported in PubChem BioAssay AID1347423 (Functional Genomics Laboratory (NCATS/FGL), 2020).
# The campaign covered roughly 52,000 sequences. About 210 (0.4%) were called active.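 The calls were made as follows: active = gene whose silencing raises cell survival under the drug, median off-target-corrected z-score across its silencing RNAs 2 or more; inactive = the rest.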 This is one part of the list.
# Assay: Resistance to Poly (ADP-Ribose) Polymerase inhibitor: Gene Identification via Genome-wide siRNA Screen
# Settings: mouse BRCA2 R2336H ES cells, olaparib, CellTiter-Glo viability; stronger effect = higher value
# How it was run: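 Genome-wide siRNA screen (3 siRNAs/gene, 20 nM) in mouse ES cells carrying hypomorphic BRCA2 R2336H; olaparib 500 nM added 48 h post-transfection, CellTiter-Glo viability 72 h later. Normalized to plate-median negative control; MAD z-scores, gene median, seed-adjusted.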
row,Sequence,z-score
1,GCAAUGAGGAGUAUAUGUATT against Rfx5,inactive: -0.826
2,CCACUGUCCUGAUUUCUUATT against Olfr1037,inactive: -0.116
3,CGAUUUCGCCAUCUUUGGATT against Tpk1,inactive: 1.06
4,GCUAUAGCCCUAGAGCUAUTT against Psmb4,inactive: 0.209
5,GCAAGAGGGUUACAGUUAGTT against 2610001J05Rik,inactive: -0.361
6,GCGACACAGAUUCAGAGAATT against LOC434008,inactive: 1.25
7,GGACUUCACAAGACUUCAATT against 4921501M20Rik,inactive: -0.42
8,GCUGAAAAGUAGAGUUAAATT against Pcm1,inactive: 0.753
9,GGAAUGUGUGAGUGAAUUUTT against Nfyb,inactive: -1.65
10,GGUGAUGAUGAUGUCUUUGTT against B3gnt7,inactive: -0.107
11,GGGUGAAUUUCCACCUUAUTT against Sgce,inactive: -1.49
12,GGAGUACGAAUUCCUCACUTT against Arhgdib,inactive: 0.935
13,GGAAGUAGCCCAGAAGUGUTT against Rad51l3,inactive: 0.307
14,GGUAUCUAUGGAGGUUAUUTT against 0610031J06Rik,inactive: -1.01
15,GGGAUGCUAACAGGUGUCATT against BC021917,inactive: -0.386
16,GGUUCCAACAGGAGAGAACTT against Crsp3,inactive: -1.36
17,UUUCAACUGAAUUGCACUUTT against 4930471G03Rik,inactive: 1.91
18,GGUUAAAAUUUGGUUUCAGTT against Cdx2,inactive: 0.33
19,GCCACUAAGAUUGUCAUCGTT against Tacr3,inactive: -0.805
20,GCCACUCUGUCAAUUAACATT against 6030404E16Rik,inactive: -1.27
21,CGGGAAAGUACUGUAGAAATT against Cdc42se1,inactive: -0.296
22,GGAGUACUUCCCUGUGAUCTT against Magea6,inactive: -0.156
23,GCACGAACAAAAUGAAUACTT against Insl6,inactive: -0.219
24,CGGACACUUUCACCUUCAATT against C77080,inactive: 0.521
25,GGUAGUUAAUCAGUGUAAATT against Rps6kb1,inactive: 0.3
26,GGUGCACAGAUGUCUUACCTT against Sec24d,inactive: -0.903

row,Sequence,z-score
1,GGUCUUACUCAAAAACCAATT against 6330416G13Rik,inactive: -1.17
2,GGAAGCUUACUUUUCUCUATT against BC021395,inactive: 0.441
3,GCACAGACAUCUUUUGCCATT against Man2a2,inactive: -0.333
4,CCUAUCUCAUACCUACAUGTT against 2810474O19Rik,inactive: 0.158
5,GCUCAAUGACAGACUAGCCTT against Dusp3,inactive: -0.763
6,GGAUUUUCUACUUAGCAACTT against 9630013D21Rik,inactive: -0.106
7,GCCAUCAUACUGUCACCAGTT against 2610042O14Rik,inactive: -0.341
8,GGACUAGCACUUUAUGUUUTT against Strm,inactive: 0.544
9,CCUAUGAACUCUUAACCAATT against Pgd,inactive: -2.07
10,GGUUAGUCGACAGAAACAATT against 4921537P18Rik,inactive: -1.81
11,GGAAGAAAUGGACCAGCUGTT against Brp16,inactive: -1.27
12,GGCAAACGAAACACUAGCATT against Cacna1d,inactive: 1.15
13,GCAUUUCCCAGCCUGAUACTT against 2810003C17Rik,inactive: -0.751
14,GGAUGUAGAACUCUUAGCUTT against B930090D16Rik,inactive: 0.988
15,GGGACUUUUUUAGGUGAAUTT against Npl,inactive: 0.251
16,GGAAUGGUAUCAGACUUCUTT against 9930022N03Rik,inactive: -2.29
17,GGAACACCUCUGGAAAUCUTT against Pex12,inactive: 0.279
18,GCACGGAAGACUUACGAACTT against Cstf3,inactive: -0.602
19,GGAUGUGACUCAGAUUGGGTT against Gm905,inactive: -0.149
20,CUAGUUGACUUCUGGUACUTT against Olfr915,inactive: -0.538
21,GGAUCUACGCAAGCAAGCATT against BC019806,inactive: -0.852
22,GCUAUAGUUACUAAACUACTT against Flt1,inactive: 0.648
23,GGACAAAGUGGUUAUGUGGTT against Rims1,inactive: 0.332
24,GGAAAGGUCAAGCUGGUUCTT against Smbp,inactive: 1.11
25,CGUUCAUAAUGACUCCGUUTT against Slc39a10,inactive: -0.872
26,GGCCUUUCUGGAGAAGAUGTT against Stfa3,inactive: -0.717

row,Sequence,z-score
1,GCCAUUAAGAUCGCUUACUTT against Sepp1,inactive: -1.04
2,CCUGGUUAAAGGUUAUCCATT against Commd7,inactive: -0.377
3,GGAAUUUGUUCUCUUAUCGTT against Anapc1,inactive: -1.69
4,GGUUACAGAAGAAUUAGAATT against Esrrbl1,inactive: 0.199
5,GGGUUUAGCCAUCUGUUUCTT against AW049765,inactive: -0.11
6,GCUCAUGGAUACGUCACUATT against Map2k6,inactive: -0.0632
7,CCAAUAACUCUAAAUAGGCTT against Trhr,inactive: -0.0695
8,GGAGCAGUAUAUCCUACAUTT against Olfr510,active: 0.104
9,GGACGUGUUCGGAAACCUATT against Psmc3ip,inactive: 1.65
10,GGAAGAAAAACUGAAGAGATT against Ctsr,inactive: -0.608
11,GGAAAUGAGUCAACUGUACTT against Pappa,inactive: -0.13
12,GCUAAUCCAGGACUGUUUATT against Trim14,inactive: -0.141
13,CGGUGCGAUCUCUCAAAGUTT against Cryba4,inactive: 2.14
14,GAAAACCUACCAGUGGGUGTT against Thsd6,inactive: 0.526
15,CGAACUCUGCUACUACACATT against 2210010B09Rik,inactive: -1.46
16,CCUGAUGGGUUACCUAUGCTT against Col25a1,inactive: 0.174
17,GCGUGUCCUAUAGCAUCUGTT against Ela1,inactive: 2.9
18,GGAGAUACCGGGAAUCCAATT against Rpl19,inactive: -3.33
19,GGGUAAAUAUGUGGAAAACTT against Zfp503,inactive: -0.133
20,GGGAAACAAAUUGUUUGCATT against Dyx1c1,inactive: 0.357
21,CCGCUUCCAUCACAACAGUTT against Zc3hav1,inactive: 0.887
22,GGAAGGUACUCUGAUGGAATT against Ptpn13,inactive: 1.2
23,GUGGCUAUCGGCACAACAUTT against Gpha2,inactive: 0.455
24,GGAACUACCUCUUCAGACUTT against Sema5b,inactive: -0.863
25,GUAGUAGUCCUAGGUCUACTT against Spag8,inactive: -0.284
26,GCCAACAAUUACGUAUCAATT against Papolg,inactive: -0.3

row,Sequence,z-score
1,GGCCCUCAAACAGUGCAAATT against 1620401E04Rik,inactive: 1.23
2,CCUCAUUGUUUUAUACCCUTT against Olfr1140,inactive: 0.748
3,CCCAACAAUGCUGCACAUGTT against H1foo,inactive: -1.06
4,GGUGACUAUGAAGAAAAAATT against F13a,inactive: 0.531
5,CCUUGCCUUUACUACCAGUTT against Olfr15,inactive: -0.924
6,GGAGAAAGAGCAGAGUCUGTT against Cep2,inactive: -1.34
7,GGAGAAGAAGACCAAUGAGTT against Rabgef1,inactive: 1.38
8,GCUUUAUAGGAACCUAAACTT against D430044G18Rik,inactive: 0.629
9,CCUCCCAAUUCCAUUGGAATT against Serpinb3c,inactive: -0.801
10,GGAUUCCAGAACAAACACATT against Plekhb2,inactive: -0.979
11,GGCUUACUUCCAAAGACUUTT against Naalad2,inactive: 0.112
12,GGGUGUACCUUAUGUAUUATT against Prpf4,inactive: -1.05
13,GGAAACUGUUGAAUCUUGUTT against Smad5,inactive: 0.899
14,GCUCUAUCAAGCUGACGGGTT against 2610111M03Rik,inactive: -0.199
15,CCUUUACACCACUCUAUUUTT against 9130014G24,inactive: -0.43
16,GGUUUGUGCUCUUUAUUUGTT against BC011487,inactive: 0.621
17,GCGAUUGGCCCAAAAAUGCTT against Olfr1151,inactive: -0.53
18,GCCAGGUCUGAAGAACUGUTT against Rap1b,inactive: -0.522
19,CGACAUAGCUACCAGUCUGTT against Indo,inactive: -1.94
20,GGUUUGGCAGAAGUGCAUGTT against Npff,inactive: -0.195
21,GGUCCCAUUCAGUGUGUGUTT against Cdk10,inactive: -0.19
22,CCCUGUUAUCCGAUUGGAUTT against C730040N12Rik,inactive: -0.37
23,UGCCAUGAGUCAGCUUUUGTT against Olfr1301,inactive: 0.566
24,GGUGAACAACUUUGUCAUCTT against 2610110G12Rik,inactive: -0.361
25,GGAAGUUGGUUAUACUCGUTT against Wins2,inactive: -0.122
26,GCGUGCAACAUGUUCUGUATT against Wfdc13l1,inactive: -0.802

# 3 records picked at random from the list so far, as already listed:
row,Sequence,z-score
14,GGUAUCUAUGGAGGUUAUUTT against 0610031J06Rik,inactive: -1.01
3,GGAAUUUGUUCUCUUAUCGTT against Anapc1,inactive: -1.69
19,GCCACUAAGAUUGUCAUCGTT against Tacr3,inactive: -0.805
